# Measurements: PubChem BioAssay AID2685 (National Center for Advancing Translational Sciences (NCATS), 2010)
# Some of the results follow. The main result of the screen is listed elsewhere. These columns were measured beside it and carry no call. The list favours compounds with an active or inconclusive main result. The note in brackets gives the kind of curve behind each potency; many fits are weak.
# Assay: qHTS Assay for Lipid Storage Modulators in Drosophila S3 Cells;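 as to cell number change: cells counted by Cell Tracker Red CMTPX staining in the red channel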
# Conditions: BODIPY lipid droplet fluorescence, 18-24 h; for cell number change: measured here: cell count max response, cells fed with added oleic acid
# Method in brief: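 Drosophila S3 cells loaded with oleic acid (400 uM, as added) and compounds at several concentrations; lipid droplets imaged by 488-nm laser-scanning cytometry, 500–530 nm intensity and object ratio to cell channel. Percent activity normalized to 20 uM Triacsin C.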
# [1] = measured here: lipid fluorescence (Fed channel) AC50, cells fed with added oleic acid
# [2] = measured here: cell number channel AC50, cells fed with added oleic acid
structure (smiles),measurement,setting,value
O=C(Nc1c(S(=O)(=O)c2ccc(Cl)cc2)csc1Br)c1ccccc1Cl,cell number change,,-3.7%
same,AC50,[1],"3.66 µM [rising, single point]"
COc1ccc(NC(=O)NN2CCOCC2)cc1OC,cell number change,,5.41%
Cc1nnc(SCC(=O)Nc2nsc(-c3ccc(Cl)cc3)n2)s1,cell number change,,38.1%
same,AC50,[2],"20.6 µM [rising, single point]"
same,AC50,[1],"2.31 µM [rising, partial curve, poor fit]"
O=C(Oc1ccc2c3c(c(=O)oc2c1)CCC3)c1ccccc1[N+](=O)[O-],cell number change,,15.9%
same,AC50,[1],"0.0259 µM [rising, full curve, poor fit]"
CCN(CC)c1ccc(NC(=O)c2ccccc2)cc1S(=O)(=O)Nc1ccccc1OC,cell number change,,-19.9%
CC(/C=C/c1ccc2c(c1)OCO2)=N/NC(=O)c1ccncc1,cell number change,,23.5%
same,AC50,[1],"3.26 µM [falling, single point]"
Cc1nnc2n(c1=O)C(CS(=O)(=O)c1ccccc1)CS2 (centres undefined),cell number change,,12.9%
same,AC50,[1],"0.00651 µM [falling, full curve]"
O=C(CCCc1ccccc1)Nc1ccccn1,cell number change,,31.2%
same,AC50,[2],"29.1 µM [rising, single point]"
COc1ccc(NC(=O)CSc2n[nH]c(C)c2[N+](=O)[O-])cc1,cell number change,,49.9%
same,AC50,[2],"13 µM [rising, partial curve]"
O=C(Nc1ccccn1)c1ccc(S(=O)(=O)N2CCCC2)cc1,cell number change,,-0.337%
same,AC50,[2],"0.731 µM [falling, single point]"
O=C(CCc1c[nH]c2ccccc12)N1CCN(S(=O)(=O)c2ccc(F)cc2)CC1,cell number change,,92.4%
same,AC50,[2],"14.6 µM [rising, partial curve]"
O=C(CSc1nc2[nH]ncc2c(=O)[nH]1)Nc1ccccc1,AC50,[2],"6.51 µM [falling, single point]"
COc1ccc(/C=C/C(=O)OCC(=O)Nc2ccc3c(c2)OCO3)cc1,cell number change,,3.96%
same,AC50,[1],"1.16 µM [rising, partial curve]"
CCN(CC(=O)NCc1cccs1)C(=O)CCCOc1ccccc1,cell number change,,34.7%
same,AC50,[2],"25.9 µM [rising, single point]"
C=C(C)CN(CC)C(=O)CN1C(=O)NC2(CCc3ccccc32)C1=O (centres undefined),cell number change,,-1.76%
same,AC50,[1],"16.4 µM [falling, single point]"
COc1ccc(NC(=O)c2nc(C)c(C3(C)CC(c4cccnc4)=NO3)s2)cc1 (centres undefined),cell number change,,12.2%
same,AC50,[1],"3.26 µM [rising, partial curve]"
COc1cccc(CN(C)C(=O)Cc2ccc(OC)c(S(=O)(=O)N3CCOCC3)c2)c1,cell number change,,32.9%
same,AC50,[2],"29.1 µM [rising, single point]"
O=[N+]([O-])c1cc2oc3c(c2c(C=NCc2ccccc2)c1O)CCCC3,cell number change,,60.7%
same,AC50,[2],"29.1 µM [rising, single point]"
O=C(NCCc1nc2ccccc2[nH]1)c1ccc(Cl)c([N+](=O)[O-])c1,cell number change,,-2.88%
same,AC50,[1],"29.1 µM [falling, single point]"
O=C(Nc1nnc(-c2ccc(Br)cc2)o1)c1ccco1,AC50,[2],"6.51 µM [falling, single point]"
same,AC50,[1],"0.116 µM [falling, full curve]"
COc1ccc(-c2nn3c(=O)c(C)nnc3s2)cc1,cell number change,,36.6%
same,AC50,[2],"4.61 µM [rising, full curve, poor fit]"
COc1cc(Cl)c(C)cc1NC(=O)CSc1nnc(-c2ccccn2)n1Cc1ccco1,cell number change,,-20.4%
same,AC50,[1],"1.16 µM [rising, full curve, poor fit]"
CCOc1c(C)cnc2c1c(=O)n(Cc1ccccc1F)c(=O)n2C,cell number change,,-16.1%
N#CCCN(CCC#N)C(=O)C1c2ccccc2Oc2ccccc21,cell number change,,10.9%
same,AC50,[1],"8.2 µM [rising, partial curve]"
CCN(Cc1ccccc1)C(=O)Cn1c(=O)n(CC(=O)NCc2ccco2)c(=O)c2sccc21,cell number change,,-9.19%
same,AC50,[1],"6.51 µM [falling, single point]"
Cc1ccc(NC(=O)c2ccc3c(c2)N(CC(=O)N2CCCCC2)C(=O)C(C)(C)O3)cc1,cell number change,,4.71%
same,AC50,[1],"2.91 µM [rising, partial curve]"
O=C(Cc1ccc(F)cc1)Nc1nc(-c2ccc(F)c(F)c2)cs1,cell number change,,14.7%
same,AC50,[2],"0.00651 µM [rising, full curve, poor fit]"
same,AC50,[1],"29.1 µM [falling, single point]"
CC(=O)c1ccc(N2C(=O)[C@@H]3C(CCC(N)=O)NC4(C(=O)Nc5c4ccc(Cl)c5C)[C@@H]3C2=O)cc1 (some centres undefined),cell number change,,31.5%
same,AC50,[2],"5.8 µM [rising, full curve, poor fit]"
COc1ccc(NC(=O)C/C(C)=N/NC(=O)c2ccccn2)c(OC)c1,cell number change,,10.7%
same,AC50,[1],"6.51 µM [falling, single point]"
COc1cc(NC(C(=O)Nc2cccc(C(C)=O)c2)c2ccccc2)cc(OC)c1OC (centres undefined),cell number change,,16.7%
same,AC50,[1],"18.4 µM [rising, partial curve, poor fit]"
CCOc1ccc(-c2nnc(SCC(=O)N3CCCC3)o2)cc1,cell number change,,8.73%
same,AC50,[2],"0.92 µM [rising, full curve, poor fit]"
CN1c2ccsc2/C(=N/Nc2ccccc2)CS1(=O)=O,cell number change,,-31.4%
same,AC50,[2],"18.4 µM [falling, single point]"
CCOc1cc(CNc2ccc3c(c2)CCC3)ccc1O,cell number change,,35.3%
same,AC50,[2],"29.1 µM [rising, single point]"
COc1cc(C(=O)OCC(=O)Nc2c(F)cccc2F)cc(OC)c1C,cell number change,,24.6%
Cc1cc(C)c(OCC(=O)OCC(=O)NCC2CCCCC2)c(C)c1,AC50,[1],"25.9 µM [rising, single point]"
CN(Cc1ccccc1)C(=O)c1cc(=O)[nH]c2ccccc12,cell number change,,4.67%
CN(C)N1C(N)=C(C#N)C(c2ccc(F)cc2)C2=C1CCCC2=O (centres undefined),cell number change,,23.6%
CCOc1ccccc1C(=O)NCc1ccco1,cell number change,,5.51%
same,AC50,[1],"7.31 µM [rising, partial curve, poor fit]"
CC(C)c1nc(CNC(=O)C2CCC(=O)N(CCc3ccc(Cl)cc3)C2)no1 (centres undefined),cell number change,,-12.9%
same,AC50,[2],"0.291 µM [rising, full curve, poor fit]"
same,AC50,[1],"29.1 µM [rising, single point]"
Cc1ccc(C(=O)Nc2sc(C)c(-c3ccccc3)c2C(N)=O)cc1[N+](=O)[O-],cell number change,,-0.521%
CCOc1ccc(N2CC(C(=O)NCCc3ccc(F)cc3)CC2=O)cc1 (centres undefined),cell number change,,10.4%
O=C(NCCN1C(=O)S/C(=C\c2cccs2)C1=O)c1ccc(=O)[nH]c1,cell number change,,-33.3%
same,AC50,[2],"8.2 µM [falling, partial curve, poor fit]"
CCOc1ccccc1NC(=O)C1Cc2ccccc2CN1S(C)(=O)=O (centres undefined),cell number change,,44.4%
same,AC50,[2],"20.6 µM [rising, single point]"
same,AC50,[1],"20.6 µM [rising, single point]"
COc1ccccc1CNC(=O)CCn1c(=O)oc2ccccc21,cell number change,,-55%
same,AC50,[1],"0.00517 µM [falling, full curve]"
COC(=O)C1C(c2ccc(Cl)cc2)NC(c2ccc(Cl)cc2)C(C(=O)OC)S1(=O)=O (centres undefined),cell number change,,171%
same,AC50,[2],"23.1 µM [rising, single point]"
O=C(N/N=C/c1ccc(Cl)cc1Cl)c1ccc2nc[nH]c2c1,cell number change,,25.1%
same,AC50,[1],"0.231 µM [rising, full curve, poor fit]"
O=C(Nc1ccncc1)Nc1cccc(Cl)c1,cell number change,,-43.1%
same,AC50,[2],"20.6 µM [falling, single point]"
same,AC50,[1],"29.1 µM [rising, single point]"
O=C(c1cccc(N2CCCC2=O)c1)N1CCN(c2ccc(F)cc2)CC1,cell number change,,-22.1%
CCN(CC)c1ccc(/C=N/N2CCN(Cc3ccccc3)CC2)cc1,cell number change,,-61.4%
same,AC50,[2],"29.1 µM [falling, single point]"
same,AC50,[1],"16.4 µM [falling, single point]"
Cc1ccc(C2C(C#N)=C(N)N(c3cccnc3)C3=C2C(=O)CCC3)c(C)c1 (centres undefined),AC50,[2],"0.58 µM [rising, single point]"
COc1ccc(NC(C)=O)cc1S(=O)(=O)N1CCn2cccc2C1C (centres undefined),cell number change,,-3.63%
same,AC50,[1],"13 µM [rising, partial curve, poor fit]"
CCc1ccccc1NC(=O)CNCC(=O)Nc1ccccc1CC,cell number change,,-27%
same,AC50,[1],"16.4 µM [falling, single point]"
COc1ccc(NC(=O)CN2CCN(CC(=O)Nc3ccc(F)cc3)CC2)c(OC)c1,AC50,[1],"29.1 µM [falling, single point]"
C=CCN1C(=O)C2(OCCCO2)c2cc(C)ccc21,cell number change,,-4.99%
Cc1nnc(SCC(=O)NCc2ccc(F)cc2)[nH]c1=O,cell number change,,-31.3%
same,AC50,[2],"1.84 µM [falling, full curve, poor fit]"
same,AC50,[1],"4.11 µM [falling, single point]"
CCOC(=O)C1=C(C)OC(N)=C(C#N)C1c1cc(Cl)c(OCC(N)=O)c(OC)c1 (centres undefined),AC50,[2],"5.17 µM [rising, single point]"
COc1cc(NC(=O)c2cccs2)c(OC)cc1NC(=O)c1ccco1,cell number change,,27.6%
same,AC50,[2],"2.59 µM [rising, full curve, poor fit]"
COc1ccc(NC(=O)CN(C)S(=O)(=O)c2ccc3c(c2)CCCN3C(C)=O)cc1,AC50,[1],"0.103 µM [rising, full curve]"
CCNC(=S)NNC(=O)c1cc(-c2ccccc2C)nc2ccccc12,cell number change,,-20.3%
C=CCOC(=O)C1=C(C)NC(SCC(=O)NC(=O)OCC)=C(C#N)C1c1cccnc1 (centres undefined),cell number change,,64.1%
same,AC50,[2],"1.84 µM [rising, full curve]"
same,AC50,[1],"2.06 µM [rising, partial curve]"
COc1cc(C(=O)N2CCC(NC(=O)C(Cc3ccc(C)cc3)NC(C)=O)CC2)cc(OC)c1OC (centres undefined),cell number change,,-99.7%
same,AC50,[2],"23.1 µM [falling, partial curve, poor fit]"
same,AC50,[1],"20.6 µM [falling, partial curve]"

# Looked up one by one from the list above, 4 records:
structure (smiles),measurement,setting,value
O=C(Nc1c(S(=O)(=O)c2ccc(Cl)cc2)csc1Br)c1ccccc1Cl,AC50,[1],"3.66 µM [rising, single point]"
CN1c2ccsc2/C(=N/Nc2ccccc2)CS1(=O)=O,AC50,[2],"18.4 µM [falling, single point]"
Cc1ccc(NC(=O)c2ccc3c(c2)N(CC(=O)N2CCCCC2)C(=O)C(C)(C)O3)cc1,cell number change,,4.71%
same,AC50,[1],"2.91 µM [rising, partial curve]"

# A run of entries of the results above, for reference:
structure (smiles),measurement,setting,value
CCN(Cc1ccccc1)C(=O)Cn1c(=O)n(CC(=O)NCc2ccco2)c(=O)c2sccc21,cell number change,,-9.19%
same,AC50,[1],"6.51 µM [falling, single point]"

# In another format: entries from further up.
structure (smiles) | measurement | setting | value
COc1cc(NC(=O)c2cccs2)c(OC)cc1NC(=O)c1ccco1 | AC50 | [2] | 2.59 µM [rising, full curve, poor fit]
COc1ccc(NC(=O)CN(C)S(=O)(=O)c2ccc3c(c2)CCCN3C(C)=O)cc1 | AC50 | [1] | 0.103 µM [rising, full curve]
